{"source": "patent US10736906B2", "about": "“Method to enhance tissue regeneration” (CHILDREN'S MEDICAL CENTER CORPORATION, priority 2006, dated 2020)", "test_system": "wnt activity", "assay": "wnt activity in TOP:dGFP wnt reporter zebrafish embryos (in situ hybridization and qPCR for GFP)", "format": "in vivo", "conditions": "dmPGE2 10 μM", "description": "An embodiment of the present invention provides for manipulation of the genetic interaction between PGE2 and wnt/β-catenin signaling, which regulates developmental specification of stem cells and regeneration. Briefly, prostaglandin (PG) E2 is required for the formation and function of hematopoietic stem cells (HSCs) in vivo, yet its mechanism of action in these cells is not completely understood.\nThe following RNA probes were used to detect alterations in endodermal and liver development: GFP, LFABP, sterol carrier protein, transferrin, foxA3, insulin, trypsin, and IFABP. Changes in expression compared to wild-type controls are reported as the # altered/# scored per genotype; a minimum of three independent experiments were conducted per analysis.", "note": "At least one structure is not confirmed: it was looked up by name or label, or the drawing left a doubt."}
{"molecule": "CCCCC(C)(C)[C@H](O)/C=C/[C@H]1[C@H](O)CC(=O)[C@@H]1C/C=C\\CCCC(=O)O", "note": "[dmPGE2, dimethyl-prostaglandin E2]", "values": [{"measurement": "striking increase in wnt activity throughout the embryo, in situ hybridization for GFP (observed/scored)", "value": 99, "unit": "observed/111 scored"}]}
